Experimental data reported in PMC5123617.
These are yes or no findings as the source states them, for the method shown. Binding seen in cells or lysates may run through a third protein. Some entries that bind do so weakly or less than the wild type.

By UniProt entry, the sequences of proteins in these tests, tags left out.
UniProt Q80XJ2: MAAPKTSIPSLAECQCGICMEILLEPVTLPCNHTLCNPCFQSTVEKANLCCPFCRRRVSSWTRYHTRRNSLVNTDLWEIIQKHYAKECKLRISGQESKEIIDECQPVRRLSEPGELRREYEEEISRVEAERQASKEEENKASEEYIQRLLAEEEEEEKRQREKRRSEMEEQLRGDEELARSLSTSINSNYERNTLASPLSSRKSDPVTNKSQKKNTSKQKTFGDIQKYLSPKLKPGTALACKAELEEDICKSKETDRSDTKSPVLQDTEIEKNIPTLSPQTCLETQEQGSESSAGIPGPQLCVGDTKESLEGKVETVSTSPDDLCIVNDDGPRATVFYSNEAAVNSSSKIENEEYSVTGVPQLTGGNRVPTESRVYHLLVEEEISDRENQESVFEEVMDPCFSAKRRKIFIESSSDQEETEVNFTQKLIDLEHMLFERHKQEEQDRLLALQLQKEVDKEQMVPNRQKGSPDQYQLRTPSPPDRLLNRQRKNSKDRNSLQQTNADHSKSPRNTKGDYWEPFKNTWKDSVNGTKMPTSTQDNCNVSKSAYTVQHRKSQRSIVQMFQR

Molecular target: 3xFlag-H2AX wild type (H2AX-WT) (mouse) (UniProt P27661)
Assay: co-IP; Flag-tagged H2AX precipitated with anti-Flag M2 affinity gel overnight at 4°C from 250 ug of lysate (p300 lysis buffer: 20 mM NaH2PO4, 250 mM NaCl, 30 mM NaPPi, 0.1% NP-40, 5 mM EDTA; sonicated) of wt and junD-/- fibroblasts co-transfected with HA-ubiquitin; four washes; blot with RNF168-specific antibody

binding: binds
Substance: E3 ubiquitin ligase RNF168 (from UniProt Q80XJ2 1-565) (enzyme)
